The target of this assay is Cdc5, kinase-dead substrate-trap allele (S. cerevisiae) (UniProt P32562). Briefly: co-IP; Cdc5-HA immunoprecipitated with anti-HA magnetic beads (2 h, 4°C, NP-40 buffer) from cells arrested in metaphase (cdc20 arrest, CDC20-AID) after galactose induction of Cdc5; Top2-9PK analysed in the precipitate.

Protein sequences, listed by entry. Tags and fused reporters are not part of them. Lines headed by an entry give the natural chain unless they say otherwise; changes in a name come on top.
UniProt P32562: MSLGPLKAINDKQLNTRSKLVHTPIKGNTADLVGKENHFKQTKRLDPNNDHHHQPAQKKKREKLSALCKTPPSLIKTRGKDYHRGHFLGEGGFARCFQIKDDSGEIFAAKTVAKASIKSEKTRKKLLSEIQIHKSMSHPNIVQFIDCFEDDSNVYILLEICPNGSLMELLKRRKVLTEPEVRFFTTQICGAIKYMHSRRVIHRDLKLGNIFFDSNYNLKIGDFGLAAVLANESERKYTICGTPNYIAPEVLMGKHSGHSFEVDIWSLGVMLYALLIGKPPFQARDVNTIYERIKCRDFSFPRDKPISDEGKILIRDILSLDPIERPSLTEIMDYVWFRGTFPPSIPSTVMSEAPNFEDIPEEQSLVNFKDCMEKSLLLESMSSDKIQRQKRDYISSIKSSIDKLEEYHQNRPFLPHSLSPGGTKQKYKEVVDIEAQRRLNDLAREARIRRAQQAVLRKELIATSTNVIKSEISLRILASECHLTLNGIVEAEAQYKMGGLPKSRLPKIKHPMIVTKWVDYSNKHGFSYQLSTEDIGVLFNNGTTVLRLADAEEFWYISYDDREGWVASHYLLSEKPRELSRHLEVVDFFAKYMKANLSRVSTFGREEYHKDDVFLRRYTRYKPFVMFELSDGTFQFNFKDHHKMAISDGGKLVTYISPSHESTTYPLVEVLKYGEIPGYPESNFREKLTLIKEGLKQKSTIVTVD

No constants are given. Whether binding was seen depends on the method and setting. Binding seen in cells or lysates may run through a third protein. Binding can be weak; no strength is given. Tags and fused reporters may be left off the sequences shown.

B1: Topoisomerase II (Top2), TOP2-9PK fusion (enzyme, UniProt P06786 1-1428)
chain: MSTEPVSASDKYQKISQLEHILKRPDTYIGSVETQEQLQWIYDEETDCMIEKNVTIVPGLFKIFDEILVNAADNKVRDPSMKRIDVNIHAEEHTIEVKNDGKGIPIEIHNKENIYIPEMIFGHLLTSSNYDDDEKKVTGGRNGYGAKLCNIFSTEFILETADLNVGQKYVQKWENNMSICHPPKITSYKKGPSYTKVTFKPDLTRFGMKELDNDILGVMRRRVYDINGSVRDINVYLNGKSLKIRNFKNYVELYLKSLEKKRQLDNGEDGAAKSDIPTILYERINNRWEVAFAVSDISFQQISFVNSIATTMGGTHVNYITDQIVKKISEILKKKKKKSVKSFQIKNNMFIFINCLIENPAFTSQTKEQLTTRVKDFGSRCEIPLEYINKIMKTDLATRMFEIADANEENALKKSDGTRKSRITNYPKLEDANKAGTKEGYKCTLVLTEGDSALSLAVAGLAVVGRDYYGCYPLRGKMLNVREASADQILKNAEIQAIKKIMGLQHRKKYEDTKSLRYGHLMIMTDQDHDGSHIKGLIINFLESSFPGLLDIQGFLLEFITPIIKVSITKPTKNTIAFYNMPDYEKWREEESHKFTWKQKYYKGLGTSLAQEVREYFSNLDRHLKIFHSLQGNDKDYIDLAFSKKKADDRKEWLRQYEPGTVLDPTLKEIPISDFINKELILFSLADNIRSIPNVLDGFKPGQRKVLYGCFKKNLKSELKVAQLAPYVSECTAYHHGEQSLAQTIIGLAQNFVGSNNIYLLLPNGAFGTRATGGKDAAAARYIYTELNKLTRKIFHPADDPLYKYIQEDEKTVEPEWYLPILPMILVNGAEGIGTGWSTYIPPFNPLEIIKNIRHLMNDEELEQMHPWFRGWTGTIEEIEPLRYRMYGRIEQIGDNVLEITELPARTWTSTIKEYLLLGLSGNDKIKPWIKDMEEQHDDNIKFIITLSPEEMAKTRKIGFYERFKLISPISLMNMVAFDPHGKIKKYNSVNEILSEFYYVRLEYYQKRKDHMSERLQWEVEKYSFQVKFIKMIIEKELTVTNKPRNAIIQELENLGFPRFNKEGKPYYGSPNDEIAEQINDVKGATSDEEDEESSHEDTENVINGPEELYGTYEYLLGMRIWSLTKERYQKLLKQKQEKETELENLLKLSAKDIWNTDLKAFEVGYQEFLQRDAEARGGNVPNKGSKTKGKGKRKLVDDEDYDPSKKNKKSTARKGKKIKLEDKNFERILLEQKLVTKSKAPTKIKKEKTPSVSETKTEEEENAPSSTSSSSIFDIKKEDKDEGELSKISNKFKKISTIFDKMGSTSATSKENTPEQDDVATKKNQTTAKKTAVKPKLAKKPVRKQQKVVELSGESDLEILDSYTDREDSNKDEDDAIPQRSRRQRSSRAASVPKKSYVETLELSDDSFIEDDEEENQGSDVSFNEED
In the case of B1, the binding entry is given as “binds”.
